From PubChem BioAssay record AID1851 (NCATS, 2009).

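Human cytochrome P450 2D6 or 2C9 made recombinantly, with enzyme activity tracked through a luminescent signal from dealkylation of a luciferin precursor; timing is not given here.
Percent change in enzyme activity at the series' top concentration, where 0 is the no-effect control and more negative values mean stronger inhibition.
Calls come from the fitted dose curve: inactive means no well-fitted curve with a large enough effect, even if single readings are sizeable.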

Values are in %.
Every entry below has the call inactive.
These are entries filed as inactive; the hits of the assay are not listed here.

| compound | condition | activity (%) |
|---|---|---|
| `CO/N=C\[C@@H](C)[C@H](OCc1ccccc1)C(C)C` | Cytochrome P450 2D6 (Homo sapiens); p450-cyp2d6; at 11.4 µM (top of the series) | 9.982 |
| `N[C@H](C(=O)O)c1cc(=O)[nH]o1` | Cytochrome P450 2C9 (Homo sapiens); p450-cyp2c9; at 57.1 µM (top of the series) | 11.78 |
| `Cn1c(=S)c2[nH]c(SCCN3CCCC3)nc2n(C)c1=O` | Cytochrome P450 2D6 (Homo sapiens); p450-cyp2d6; at 11.4 µM (top of the series) | -4.812 |
| `NC(=O)c1ccc(C(=O)Nc2ccc([As](=O)(O)O)cc2)cc1` | Cytochrome P450 2C9 (Homo sapiens); p450-cyp2c9; at 11.4 µM (top of the series) | 6.454 |
| `CCOC(=O)N1CCN(C(=O)c2cnc3n(c2=O)CCS3)CC1` | Cytochrome P450 2D6 (Homo sapiens); p450-cyp2d6; at 57.1 µM (top of the series) | -9.845 |